Assay results from PubChem BioAssay AID743255 (National Center for Advancing Translational Sciences (NCATS), 2014).
The campaign covered roughly 390,000 compounds. About 910 (0.23%) were called active. Inconclusive results, whose numbers are uncertain, are shown with a selection of clear calls. Calls come from the whole dose curve; as a rule, active = well fitted inhibition curve with a large enough effect; inconclusive = small, poorly fitted or top-dose-only effect; inactive = no such curve, though single readings can be large or run the other way. Potencies beside an inconclusive call are fits to weak or partial responses and may not hold up.

Amino acid sequences for entries named in this document (tags omitted). A change or cut given only in a name is not applied to a line headed by its entry.
UniProt O94782: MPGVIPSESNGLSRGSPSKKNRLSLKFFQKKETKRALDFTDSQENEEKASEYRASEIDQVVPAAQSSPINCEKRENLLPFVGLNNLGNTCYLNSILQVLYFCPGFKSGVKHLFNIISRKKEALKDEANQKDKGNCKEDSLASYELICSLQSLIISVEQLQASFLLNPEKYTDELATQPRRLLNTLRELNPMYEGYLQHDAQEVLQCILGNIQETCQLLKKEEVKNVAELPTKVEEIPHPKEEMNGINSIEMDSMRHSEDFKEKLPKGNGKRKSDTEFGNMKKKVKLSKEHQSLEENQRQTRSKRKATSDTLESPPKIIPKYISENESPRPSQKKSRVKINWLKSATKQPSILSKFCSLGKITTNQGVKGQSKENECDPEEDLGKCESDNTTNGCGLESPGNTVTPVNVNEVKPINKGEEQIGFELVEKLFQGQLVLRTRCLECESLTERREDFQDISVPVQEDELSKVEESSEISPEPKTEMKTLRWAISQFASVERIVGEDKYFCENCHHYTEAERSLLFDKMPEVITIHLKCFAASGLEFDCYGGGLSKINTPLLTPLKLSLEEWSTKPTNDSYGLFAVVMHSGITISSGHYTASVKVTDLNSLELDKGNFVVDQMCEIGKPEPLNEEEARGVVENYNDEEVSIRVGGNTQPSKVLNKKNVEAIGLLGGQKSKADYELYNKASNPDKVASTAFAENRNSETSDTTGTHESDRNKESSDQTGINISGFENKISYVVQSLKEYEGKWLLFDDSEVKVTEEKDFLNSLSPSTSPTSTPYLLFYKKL

The compounds below were run against Ubiquitin carboxyl-terminal hydrolase 1 (Homo sapiens) (UniProt O94782) (assay: Inhibitors of USP1/UAF1: Primary Screen). Details: recombinant USP1/UAF1, Ub-Rhodamine cleavage fluorescence; activity change, negative = inhibition: at 57.1 µM (top of the series).
Method in brief: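 Step one: compound is pinned into 1nM USP1/UAF1 in HEPES pH 7.8 buffer with TCEP. Step two: 15 min room-temperature incubation. Step three: Ub-Rho (150nM final) starts cleavage, tracked by fluorescence over six one-minute reads.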
% is set by controls: 0 for no effect and ±100 for the full control effect; potency is the fitted concentration of half-maximal effect.
Note: nearly all actives have a fitted effect of over 60% in size.

SMILES | Potency | activity change, negative = inhibition
CCc1ccc(Nc2n[n+](-c3ccccc3)c(-c3cccc(C)c3)s2)cc1 | inconclusive: 50.1 µM [inhibitor, partial curve, poor fit] | 
Cc1ccc2sc(N(CCCN(C)C)C(=O)CCS(=O)(=O)c3ccccc3)nc2c1C | inconclusive: 50.1 µM [inhibitor, partial curve, poor fit] | 
O=C(N/N=C/c1ccc(O)cc1)NC12CC3CC(CC(C3)C1)C2 | inconclusive: 0.562 µM [inhibitor, full curve, poor fit] | 
COc1ccc(/C=C2\SC(=O)N(CC(=O)Nc3ccccc3O)C2=O)cc1OC | inconclusive: 2.24 µM [inhibitor, full curve, poor fit] | 
C/C(CCc1oc2ccc(Br)cc2c1-c1ccc(C)o1)=N/O | inconclusive: 10 µM [inhibitor, full curve, poor fit] | 
CC(=O)Nc1ccc(-c2ccc(NC(C)=O)cc2)cc1 |  | inactive: -3.66%
CCc1cccc(N(C(=O)c2csnn2)C(C(=O)NC2CCCCC2)c2ccncc2)c1 (stereo not drawn) | inconclusive: 39.8 µM [inhibitor, single point] | 
COc1cc(/C=C/c2nc3ccccc3c(=O)[nH]2)cc(Br)c1O | inconclusive: 17.8 µM [inhibitor, partial curve] | 
CN(C)S(=O)(=O)N1C(=O)c2ccccc2C1=O |  | inactive: -20.6%
COc1ccccc1N1CCN(S(=O)(=O)c2ccc([N+](=O)[O-])cc2)CC1 |  | inactive: -6.72%
Cc1nc2sc(C)c(C)n2c(=O)c1S(=O)(=O)NCCc1ccc(Cl)cc1 | inconclusive: 0.282 µM [inhibitor, full curve] | 
CNc1nc(Nc2ccc(C)c(Cl)c2)c2cnn(C)c2n1 |  | inactive: -3.88%
Brc1cccc(CNc2nc3ccccc3n2CCN2CCOCC2)c1 | inconclusive: 10 µM [inhibitor, full curve, poor fit] | 
CCN(CCNC(=O)c1cc(C)nn1-c1ccccc1)c1ccccc1 | inconclusive: 8.91 µM [inhibitor, full curve, poor fit] | 
COc1cc([N+](=O)[O-])ccc1N/C=C/C(=O)c1cccs1 | inconclusive: 5.01 µM [inhibitor, partial curve, poor fit] | 
COC(=O)c1ccsc1NC(=O)C1COc2ccccc2O1 (stereo not drawn) | inconclusive: 8.91 µM [inhibitor, partial curve, poor fit] | 
CCCCCCC(=O)Nc1nnc(CC)s1 | inconclusive: 50.1 µM [inhibitor, partial curve, poor fit] | 
CC(C)n1cnc2c(NCc3ccccc3)cc(N[C@H](C)CO)cc21 | inconclusive: 12.6 µM [inhibitor, partial curve] | 
Cc1csc(NC(=O)c2cc(-c3ccco3)nc3ccccc23)n1 |  | inactive: -5.85%
COc1ccc(C(=O)NN)cc1 | inconclusive: 35.5 µM [inhibitor, single point] | 
O=C(c1ccc2c(c1)OCO2)N(c1ccc(F)cc1)C1C=CS(=O)(=O)C1 (stereo not drawn) | inconclusive: 5.62 µM [inhibitor, partial curve] | 
Cc1cc(/C=C(\C#N)C(=O)OCC(=O)NC(=O)NC(C)(C)C)c(C)n1CCC(C)C |  | inactive: -19%
O=C(NCc1ccccc1)C1=C[C@@H](c2ccc3c(c2)OCO3)C[C@@H](OCc2ccc(CO)cc2)O1 | inconclusive: 22.4 µM [inhibitor, partial curve] | 

In another format: entries from further up
SMILES	Potency	activity change, negative = inhibition
COc1ccc(/C=C2\SC(=O)N(CC(=O)Nc3ccccc3O)C2=O)cc1OC	inconclusive: 2.24 µM [inhibitor, full curve, poor fit]	
CCc1cccc(N(C(=O)c2csnn2)C(C(=O)NC2CCCCC2)c2ccncc2)c1 (stereo not drawn)	inconclusive: 39.8 µM [inhibitor, single point]	
COc1cc(/C=C/c2nc3ccccc3c(=O)[nH]2)cc(Br)c1O	inconclusive: 17.8 µM [inhibitor, partial curve]	
CN(C)S(=O)(=O)N1C(=O)c2ccccc2C1=O		inactive: -20.6%
COc1ccccc1N1CCN(S(=O)(=O)c2ccc([N+](=O)[O-])cc2)CC1		inactive: -6.72%
Cc1nc2sc(C)c(C)n2c(=O)c1S(=O)(=O)NCCc1ccc(Cl)cc1	inconclusive: 0.282 µM [inhibitor, full curve]	
CCN(CCNC(=O)c1cc(C)nn1-c1ccccc1)c1ccccc1	inconclusive: 8.91 µM [inhibitor, full curve, poor fit]	
COc1cc([N+](=O)[O-])ccc1N/C=C/C(=O)c1cccs1	inconclusive: 5.01 µM [inhibitor, partial curve, poor fit]	
COC(=O)c1ccsc1NC(=O)C1COc2ccccc2O1 (stereo not drawn)	inconclusive: 8.91 µM [inhibitor, partial curve, poor fit]	
CC(C)n1cnc2c(NCc3ccccc3)cc(N[C@H](C)CO)cc21	inconclusive: 12.6 µM [inhibitor, partial curve]	
COc1ccc(C(=O)NN)cc1	inconclusive: 35.5 µM [inhibitor, single point]	
O=C(c1ccc2c(c1)OCO2)N(c1ccc(F)cc1)C1C=CS(=O)(=O)C1 (stereo not drawn)	inconclusive: 5.62 µM [inhibitor, partial curve]	

(more compounds)

SMILES | Potency | activity change, negative = inhibition
Cc1cnc(C(=O)OCc2cc(=O)n3c(C)cccc3n2)cn1 | inconclusive: 79.4 µM [inhibitor, partial curve, poor fit] | 
CN1CCS/C1=C\C=C1/SC(=S)N(CC(=O)O)C1=O | active: 25.1 µM | 
CCc1ccc(N2CC(C(=O)Nc3cc(C)on3)CC2=O)cc1 (stereo not drawn) |  | inconclusive: -32.6% [inhibitor]
Cc1ccc(NC(=O)N2CCC(c3nc4c(nnn4Cc4c(F)cccc4Cl)c(=O)[nH]3)CC2)cc1 | inconclusive: 0.562 µM [inhibitor, full curve, poor fit] | 
CCN(CC)c1ccc2c(c1)OC(N)=C(C#N)C2c1cccnc1 (stereo not drawn) | inconclusive: 28.2 µM [inhibitor, single point] | 
COc1cc(/C=C2/C(=O)NN(c3ccc(F)cc3)C2=O)cc(Cl)c1O | inconclusive: 50.1 µM [inhibitor, partial curve, poor fit] | 
COC(=O)CN1C(=O)C(O)(CC(=O)c2ccc(Br)cc2)c2ccccc21 (stereo not drawn) | inconclusive: 70.8 µM [inhibitor, partial curve, poor fit] | 
COCCN1C=C(C(=O)OC)C(c2cc(Br)c(OC)c(OC)c2)C(C(=O)OC)=C1 | inconclusive: 35.5 µM [inhibitor, partial curve] | 
O=C(NNC(=O)C1C2CCCCC21)c1coc(=O)c(Br)c1 (stereo not drawn) | inconclusive: 35.5 µM [inhibitor, partial curve] | 
C/C(=C\C(=S)Nc1ccccc1)Nc1cccc2ccccc12 |  | inactive: -18.5%
O=C(NNC1=Nc2ccccc2SC1)c1ccc(Cl)cc1 | inconclusive: 6.31 µM [inhibitor, partial curve, poor fit] | 
O=C(CSc1ccc(-c2ccco2)nn1)NCc1ccc2c(c1)OCO2 | inconclusive: 2 µM [inhibitor, partial curve] | 
COc1ccc(/C=C/C(=O)NC(=S)NCC2CCCO2)cc1 (stereo not drawn) |  | inactive: -20.5%
COc1cc(CNCc2ccccn2)ccc1OCC(N)=O | inconclusive: 0.631 µM [inhibitor, full curve, poor fit] | 
CCCCNc1c(-c2ccc(OC)c(SC3CCCCC3)c2)nc2cnccn12 | inconclusive: 39.8 µM [inhibitor, partial curve] | 
COc1ccc(OC)c(NC(=O)COC(=O)Cc2ccc(Br)cc2)c1 | inconclusive: 44.7 µM [inhibitor, partial curve, poor fit] | 
CCOC(=O)C1(CC2CCCCO2)CCN(Cc2ccc(OC)cc2F)CC1 (stereo not drawn) | inconclusive: 56.2 µM [inhibitor, partial curve, poor fit] | 
CCCNC(=O)c1c(O)c2c([nH]c1=O)CCCC2 | inconclusive: 3.55 µM [inhibitor, partial curve] | 
CC1(C(=O)N2CCC(CC3CC(c4ccc(Cl)cc4)=NO3)(C(=O)NCC3CCCCC3)CC2)CC1 (stereo not drawn) | inconclusive: 22.4 µM [inhibitor, partial curve, poor fit] | 
CCO/C=C1/C(=O)N(c2ccc(OC)cc2)C(=O)c2ccccc21 | inconclusive: 28.2 µM [inhibitor, single point] | 
Cc1cc(N2CCN(C)CC2)nc2ccc(NC(=O)CCC(=O)N3CCN(c4ccc([N+](=O)[O-])cc4)CC3)cc12 | inconclusive: 2.24 µM [inhibitor, partial curve, poor fit] | 
CCC(C)[C@H](NS(=O)(=O)c1ccc(F)cc1Br)C(=O)OC (stereo partly drawn) |  | inactive: -16.6%
CCc1nnc(NS(=O)(=O)c2ccc(NC(=S)NC(=O)/C=C/c3ccc(F)cc3)cc2)s1 |  | inactive: -12.2%

SMILES | Potency | activity change, negative = inhibition
CC1Cc2ccccc2N1C(=O)c1ccc(Br)o1 (stereo not drawn) | inconclusive: 35.5 µM [inhibitor, partial curve] | 
COc1ccccc1N1C(=O)C(=O)N(C)C1=O |  | inactive: -3.3%
COc1ccc(/C=N/NC(=O)c2cccc(Br)c2)cc1COc1ccccn1 | inconclusive: 12.6 µM [inhibitor, partial curve, poor fit] | 
COc1ccc(OC)c(/C=C/C(=O)N2CCCc3ccccc32)c1 |  | inactive: -14.3%
CCOc1ccc(NC(=O)C2CC(=O)N(c3ccc4c(c3)OCCO4)C2)cc1OCC (stereo not drawn) | inconclusive: 3.16 µM [inhibitor, full curve] | 
CN(C)C(=O)c1ccc(-c2nnc(OCc3nc4ccccc4n3C)c3ccccc23)cc1 | inconclusive: 15.8 µM [inhibitor, partial curve, poor fit] | 
CCOC(=O)N1CCC(Nc2c(NCCN3CCN(c4ccccc4F)CC3)c(=O)c2=O)CC1 | inconclusive: 0.708 µM [inhibitor, full curve, poor fit] | 
CCN(CC)c1ccc(NC(=O)CCS(=O)(=O)c2cccc3nsnc23)c(C)c1 | inconclusive: 11.2 µM [inhibitor, partial curve, poor fit] | 
COc1ccc2c(c1)Cc1sc(NC(=O)c3ccccc3)nc1-2 | inconclusive: 22.4 µM [inhibitor, partial curve] | 
COc1cc(OC)c(NC(=O)C(C)n2c(=O)cc(-c3ccccc3)c3c(C)nn(C)c32)cc1Cl (stereo not drawn) |  | inactive: -6.05%
CC(C)n1c(C(F)(F)F)nc2cc(C(=O)N3CCCCC3)ccc21 | inconclusive: 44.7 µM [inhibitor, partial curve, poor fit] | 
CNC(=O)C1CCC(Cn2c(=O)c3sccc3n(Cc3ccccc3)c2=O)CC1 (stereo not drawn) |  | inactive: -12.2%
COC(=O)c1cccc(CN2C(=O)SC(Nc3ccccc3)C2=O)c1 (stereo not drawn) | inconclusive: 35.5 µM [inhibitor, partial curve] | 
COc1ccc(CNS(=O)(=O)c2ccc(-n3cnnn3)c(C)c2)cc1 | inconclusive: 35.5 µM [inhibitor, single point] | 
CCOC(=O)c1c(NC(=O)CSc2nnnn2-c2ccc(OC)cc2)sc(C)c1C |  | inactive: -18%
CN1C(=O)C2CN(CCc3ccccc3)CNC2N(C)C1=O (stereo not drawn) |  | inactive: -11.7%
CC(C)c1ccc(NC(=O)CCCC(=O)NCCc2ccccc2)cc1 |  | inactive: -0.178%
CCC(C)C(=O)Nc1nc(C)c(-c2csc(Nc3ccccc3OC)n2)s1 (stereo not drawn) |  | inactive: 13.3%
Cc1cc(Cl)ccc1NC(=S)NCCc1ccc(Cl)cc1 |  | inactive: -0.856%
O=Nc1ccc(O)c2ncccc12 |  | inactive: -19.7%
Nc1ccc(N=Nc2ccccc2)c2ccccc12 |  | inactive: -17.8%
O=C(c1ccc(-c2ccccc2)cc1)N1CCC(C(=O)N2CCCC2)CC1 | inconclusive: 31.6 µM [inhibitor, partial curve] | 
